The source of these data is paper PMC10163288.

Some of the results follow. A value given as a limit tells only on which side of the number the result lay.

The apparent Kd is a dissociation constant that holds for the conditions of the assay.

B1: il2ra_site2_3nfp_sap_21_mot_HHH_b1_04781_af2_000000057_0001_1_18_H_._0bad3e1dd0b580ac51794e340135530b_0001_af2_0001_0000100001_0000001_0_0001 (protein)
chain: SSSSDVEEELEHFLEEIERLLREGNPEEAKEHLQEAARLAYENNDFEVFAKLADLAAKLFSSSSS
B2: il2ra_site1_1z92_normal_mot_HHH_b1_00108_af2_000000035_0001_38_51_H_._HHH_b2_04082_0001_0000200010_0000001_0 (protein)
chain: SSSSSSDYEEIAELFREAARINDRREVEKILEEALELAEENGDESLAKDIRQFLRMLESSSSSSS
B3: il2ra_site2_2erj_sap_16_mot_HHH_b2_03659_000000135_0001_38_56_H_._HHH_b1_04977_0001_0000300018_0000001_0_0001 (protein)
chain: SSSSDLEEEIRELREELEKLIEKGDFHRLYHLLVEISELIRELNDEELAREFNKLLQEVMSSSSS
B4: il2ra_site1_3nfp_sap_9_mot_HHH_b1_03716_af2_000000235_0001_20_37_H_._HHH_b1_05438_0001_0000400011_0000001_0_0001_af2pred_0001_af2pred_1 (protein)
chain: SSSSTELKELLKIVQRLFEEFNLSEEQAQELLQLAEELAKEGVSLEEIEELLRELAERLSSSSSS
B5: il2ra_site1_1z92_sap_19_mot_0d89ad2be31940e41b8548213a5e2889_0001_000000090_0001_19_33_H_._HEEHE_1422_0002_0000200016_0000001_0_0001_af2pred_dldesign_0_af2pred (protein)
chain: SSSSSDELADEIYDLFNEASKEKDKEKRKELLNKALELAKKNKDSKTVAEIENYLKMSKSSSSSS
B6: il2ra_site1_2b5i_normal_mot_f5ff40796168375b462bec8614a1db4a_0001_1_000000138_0001_53_65_H_._HHH_b1_00609_af2_0001_0000100003_0000001_0_af2pred_dldesign_0_af2pr … (protein)
chain: SSSSMDPAERLAEFLATADKLSDKNEQIKLLRLARRWARKQGDAEALAALEARLKEVLESSSSSS
B7: il2ra_site1_3nfp_sap_16_mot_cc4219192d8ccd35c40e7b68f9a57604_0001_af2_000000124_0001_16_32_H_._HHH_b2_07250_af2_0001_0000100007_0000001_0_0001 (protein)
chain: DAEEIAEAVEELLEFAARLDSVSVTVENGELHVTVEGDDVQARHALKLAEHAAKAFGIEVTVETE
B8: il2ra_site2_2erj_sap_24_mot_HHH_b1_00071_af2_000000225_0001_40_56_H_._HHH_b2_07109_0001_0000200010_0000001_0_0001 (protein)
chain: SSSSSEAEEEALRLAWEALRANYEGNPEEARELLERAFELAEEGNDEHLLHLIESALETLSSSSS
B9: il2ra_site2_2erj_normal_mot_HHH_b1_05749_af2_000000086_0001_23_39_H_._HHH_b1_02897_0001_0000200005_0000001_0 (protein)
chain: SSSSSSSEVEEEVEELLEQAKRITDLREAYELASEALRLAAENNNRELLELIRRVLEELSSSSSS
B10: il2ra_site1_1z92_normal_mot_HHH_b1_06286_000000038_0001_40_57_H_._HHH_b2_03353_0001_0000300009_0000001_0_af2pred_0001_af2pred (protein)
chain: SSSSDEEELRERLRELAERAGVTEEDLEFFEEQVRRALELGNPESAEAVVRQFERSARRSSSSSS
B11: il2ra_site1_3nfp_sap_20_mot_HHH_b1_00678_af2_000000150_0001_43_56_H_._HHH_b1_02486_0001_0000900022_0000001_0_0001_af2pred_0001_af2pred_swapped (protein)
chain: SSSEEEVEELLKQAERIAEELGSRAARLFVERAEKLAREAAKLNDEEKLERVAEALEEFLEQASS
B12: il2ra_site1_1z92_sap_9_mot_HHH_b2_04965_af2_000000085_0001_3_17_H_._HHH_b1_08109_af2_0001_0000100003_0000001_0_0001 (protein)
chain: SEAEEVIEELIEALREGDEELVRRLEKELEKWLGSPDAVEFVAMLAERAAKGDPKAERLLEKLLR
B13: il2ra_site2_2erj_normal_mot_HHH_b2_08028_000000126_0001_18_34_H_._HHH_b2_01768_af2_0001_0000600056_0000001_0 (protein)
chain: SSSSDEEELEELLERAKRLLEEGNPEEAHEVLSEAFELAYRLRDFEAFSELAELALEVLGSSSSS
B14: il2ra_site1_2b5i_sap_16_mot_HHH_b1_06138_000000206_0001_1_17_H_._HHH_b1_04517_0001_0001000042_0000001_0_0001_af2pred_0001_af2pred (protein)
chain: SSSSSSDEADELYREASRLWLRGNKEEAERLLEEAIEIAEREGDEEIVRELRHFLERASSSSSSS
B15: il2ra_site2_3nfp_sap_16_mot_HHH_b1_03376_000000004_0001_41_55_H_._ems_p1-15H-GBL-16H-GBL-15H_0656_0001_0001_0001_af2_0001_0000700003_0000001_0_0001 (protein)
chain: SSSSSSEEIEERVEELLEEAKKIEDPEERRKVLAEAAHLAWEGRDPRLFMAVAEVAYELLSSSSS
B16: il2ra_site1_3nfp_sap_12_mot_HHH_b2_03448_000000071_0001_40_54_H_._HHH_b1_04006_0001_0000200010_0000001_0_0001_af2pred_0001_af2pred_1_swapped (protein)
chain: SSSSDEVVELLLELSERLREAMRNSDEELLEELLEELRELLEQYGDPRVRRLIESLEKALGSSSS
B17: il2ra_site1_3nfp_sap_19_mot_HHH_b1_00160_000000267_0001_1_17_H_._HHH_b2_05199_af2_0001_0000100006_0000001_0_0001_af2pred_0001_af2pred_1_swapped (protein)
chain: SEEEVLEKLEELAKNPEEKALVKLIKQAVELHNIPPEEALELLLELFKKAGDPLYELVEELKERG
B18: il2ra_site2_2erj_normal_mot_HHH_b2_07568_000000046_0001_18_34_H_._HHH_b1_00778_af2_0001_0000300010_0000001_0 (protein)
chain: SSSDKEEAEELYEEAKELLERGNPEEAEKVLRRASELAFEAGDFELFNKLAELLRKIAELGSSSS
B19: il2ra_site1_3nfp_sap_18_mot_HHH_b1_02961_000000054_0001_1_18_H_._HHH_b1_00507_af2_0001_0000100005_0000001_0_0001_af2pred_0001_af2pred_1 (protein)
chain: DEEEELAERIRQAVEKNDPELLRRVAEELLRKLGDPAEAAKLFEELLEKAGLSPREKLRAMRLVA
B20: il2ra_site1_3nfp_sap_17_mot_HHH_b1_07180_af2_000000260_0001_1_19_H_._HHH_b2_06088_af2_0001_0000300034_0000001_0_0001 (protein)
chain: DERRVDEYFVRMVAEAAGVPSVEVTVHNGKFHVTISGDDEAAEKVAEKIEEAAERATLDLEVEVE
B21: il2ra_site1_1z92_normal_mot_66bb1f637706d7249e1dd387c51866da_0001_1_000000118_0001_54_65_H_._b453c5b638ed7abcdda957363cf0b98a_0001_0001_0000100001_0000001_0_af2 … (protein)
chain: SHAEVRRLAAELGVPEQATDRFLRLLDEFSKLADERTAVQAILDLAEKLNDPDLARLARAVLSLP
B22: il2ra_site2_2erj_sap_21_mot_HHH_b1_08207_af2_000000250_0001_43_57_H_._HHH_b1_04130_af2_0001_0000200012_0000001_0_0001 (protein)
chain: SSSSDELHELFRLANEILHALSRGDEERVRELLEELERLAEEANSDNAKEIVEALEKHLDSSSSS
B23: il2ra_site2_3nfp_sap_16_mot_ems_3hM_1278_af2_000000151_0001_43_60_H_._HHH_b1_08177_0001_0000200024_0000001_0_0001 (protein)
chain: SSSSDAEEAAELLLRKLEELGDEESFEELEELLEKLKETGDPEDLMELYALALEIYKRRHSSSSS
B24: il2ra_site1_3nfp_sap_17_mot_HHH_b1_06312_000000077_0001_1_18_H_._HHH_b2_05980_af2_0001_0000400032_0000001_0_0001_af2pred_0001_af2pred (protein)
chain: SSSSDVEERVKELLEEAKELLEEGNPQEANRVLEEAFRLAKEADDPELTEAVFKVMREAAQSSSS

The target of this assay is il2ra, P01589. Description: yeast display titration.
In the case of B1, the “apparent Kd” value was “inactive: no binding seen”.

On to B2, for which the “apparent Kd” value was “inactive: no binding seen”.

For the molecule B3, the apparent Kd was inactive: > 1500 nM.

With B4, the “apparent Kd” value was “inactive: no binding seen”.

For B5, the “apparent Kd” value is “inactive: no binding seen”.

Take B6: the “apparent Kd” value was “inactive: no binding seen”.

With B7, the “apparent Kd” value was “inactive: no binding seen”.

For B8, the “apparent Kd” value is “inactive: no binding seen”.

With B9, the “apparent Kd” value is “inactive: no binding seen”.

B10: the “apparent Kd” value is “inactive: no binding seen”.

Regarding B11, the “apparent Kd” value is “inactive: no binding seen”.

For the molecule B12, the “apparent Kd” value is “inactive: no binding seen”.

For the molecule B13, the “apparent Kd” value is “inactive: no binding seen”.

Consider B14, for which the “apparent Kd” value was “inactive: no binding seen”.

Consider B15, for which the “apparent Kd” value is “inactive: no binding seen”.

In the case of B16, the “apparent Kd” value is “inactive: no binding seen”.

Consider B17, for which the “apparent Kd” value is “inactive: no binding seen”.

B18: the “apparent Kd” value was “inactive: no binding seen”.

On to B19, for which the “apparent Kd” value was “inactive: no binding seen”.

In the case of B20, the “apparent Kd” value is “inactive: no binding seen”.

B21: the “apparent Kd” value was “inactive: no binding seen”.

Regarding B22, the “apparent Kd” value was “inactive: no binding seen”.

As for B23, the “apparent Kd” value was “inactive: no binding seen”.

On to B24, for which the “apparent Kd” value is “inactive: no binding seen”.
